Some results were stated once for a whole list of compounds, not compound by compound.
Key:
Assay type in all cases: in vivo
[1] = tested on: common cutworm (Spodoptera litura); assay: Test Example 2: soil drench at sowing, cabbage seedling, feeding damage by common cutworm; conditions: 5 mg in 5 ml drenched on soil surface of seeded cell; cabbage raised to 2.5-leaf stage; 10 first-instar larvae; 25° C., 7 days
[2] = tested on: common cutworm (Spodoptera litura); assay: Test Example 4: plant foot drench of 2.5-leaf cabbage seedling in plug cell tray, common cutworm; conditions: 5 mg in 3 ml drenched at foot of 2.5-leaf cabbage seedling; larvae released five days after drenching; 10 first-instar larvae; 25° C., 7 days
[3] = tested on: common cutworm (Spodoptera litura); assay: Test Example 6: planting hole drench at transplantation of cabbage seedling, common cutworm; conditions: 5 mg in 5 ml drenched at bottom of planting hole at transplantation to Wagner pot; seven days after transplantation; 10 first-instar larvae; 25° C., 7 days
[4] = tested on: common cutworm (Spodoptera litura); assay: Test Example 8: plant foot drench of 6-leaf cabbage seedling, common cutworm; conditions: 5 mg in 10 ml drenched at foot of 6-leaf cabbage seedling; seven days after drenching; 10 first-instar larvae; 25° C., 7 days
[5] = tested on: diamondback moth (Plutella xylostella); assay: Test Example 3: plant foot drench of 2.5-leaf cabbage seedling in plug cell tray, diamondback moth; conditions: 5 mg in 3 ml drenched at foot of 2.5-leaf cabbage seedling; larvae released five days after drenching; 10 second-instar larvae; 25° C., 7 days
[6] = tested on: diamondback moth (Plutella xylostella); assay: Test Example 5: planting hole drench at transplantation of cabbage seedling, diamondback moth; conditions: 5 mg in 5 ml drenched at bottom of planting hole at transplantation to Wagner pot; seven days after transplantation; 10 second-instar larvae; 25° C., 7 days
[7] = tested on: diamondback moth (Plutella xylostella); assay: Test Example 7: plant foot drench of 6-leaf cabbage seedling, diamondback moth; conditions: 5 mg in 10 ml drenched at foot of 6-leaf cabbage seedling; seven days after drenching; 10 second-instar larvae; 25° C., 7 days
[8] = tested on: diamondback moth (Plutella xylostella); assay: Test Example 1: soil drench at sowing, cabbage seedling, feeding damage by diamondback moth; conditions: 5 mg in 5 ml drenched on soil surface of seeded cell; cabbage raised to 2.5-leaf stage; 10 second-instar larvae; 25° C., 7 days

Measured: damage-inhibiting effect

CN(C(=O)NC(=O)c1c(F)cccc1F)c1ccc(C(F)(F)F)cc1F [present compound (8), 3-(2,6-Difluorobenzoyl)-1-[2-fluoro-4-(trifluoromethyl)phenyl]-1-methylurea]
≥ 90%: [1] | [2] | [3] | [4]

CN(C(=O)c1c(F)cccc1F)C(=O)N(C)c1cc(Cl)c(F)c(Cl)c1F [present compound (5), 3-(2,6-Difluorobenzoyl)-1-(3,5-dichloro-2,4-difluorophenyl)-1,3-dimethylurea]
≥ 90%: [5] | [6] | [7]

CN(C(=O)NC(=O)c1c(F)cccc1F)c1ccc(OC(F)(F)C(F)F)cc1 [present compound (9), 3-(2,6-Difluorobenzoyl)-1-[4-(1,1,2,2-tetrafluoroethoxy)phenyl]-1-methylurea]
≥ 90%: [1] | [2] | [3] | [4]

CN(C(=O)NC(=O)c1c(F)cccc1F)c1ccc(OC(F)(F)C(F)F)cc1F [present compound (1), 3-(2,6-Difluorobenzoyl)-1-[2-fluoro-4-(1,1,2,2-tetrafluoroethoxy)phenyl]-1-methylurea]
≥ 90%: [8] | [5] | [6] | [7]

CN(C(=O)c1c(F)cccc1F)C(=O)N(C)c1ccc(OC(F)(F)C(F)F)cc1F [present compound (6), 3-(2,6-Difluorobenzoyl)-1-[2-fluoro-4-(1,1,2,2-tetrafluoroethoxy)phenyl]-1,3-dimethylurea]
≥ 90%: [8] | [5] | [6] | [7]

CN(C(=O)NC(=O)c1c(F)cccc1F)c1ccc(Cl)cc1 [present compound (3), 3-(2,6-Difluorobenzoyl)-1-(4-chlorophenyl)-1-methylurea]
≥ 90%: [1] | [2] | [3] | [4]

Source: patent US20080280988A1, “Use of (N'-Methyl) benzoylurea compound” (priority 2007, published 2008)
